Paper PMC8417825, “Light-Induced Dynamic Change of Phytochrome B and Cryptochrome 1 Stabilizes SINATs in Arabidopsis” (Frontiers in Plant Science, 2021)

Legend:
[1] = molecular target: T1, CRY1-C-GST (Arabidopsis thaliana) (UniProt Q43125); test: pull-down; semi-in vivo pull-down: GST fusion pre-incubated with GST beads at 4°C for 1 h, incubated with total protein extract of 2-week-old SINAT2-FLAG or SINAT5-FLAG plants (100 mM Tris-HCl pH 7.5, 300 mM NaCl, 2 mM EDTA, 1% Triton X-100, 10% glycerol, 50 uM MG132); washed with 1x PBS, 0.1% Triton X-100; anti-FLAG blot; only the target purified
T1 sequence: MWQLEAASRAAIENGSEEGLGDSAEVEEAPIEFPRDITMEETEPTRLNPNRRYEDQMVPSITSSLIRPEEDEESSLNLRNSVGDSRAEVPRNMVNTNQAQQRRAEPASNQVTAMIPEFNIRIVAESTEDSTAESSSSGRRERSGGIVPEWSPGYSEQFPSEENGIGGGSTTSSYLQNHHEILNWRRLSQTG

[2] = molecular target: T1, CRY1-C-GST (Arabidopsis thaliana); test: pull-down; in vitro pull-down: about 5 ug GST-tagged protein on glutathione resin, about 2 ug His-tagged protein added, 1 h at 4°C; washed with 1x PBS, 0.1% Triton X-100; anti-His blot; both purified

binding [2] | Substance | binding [1]
– | SINAT5-FLAG (Arabidopsis thaliana) | binds
binds | SINAT5-His (Arabidopsis thaliana) | –

No constants are given. Whether binding was seen depends on the method and setting. A result given as binding can be weak or reduced; the word gives no strength. Tags and fused reporters may be left off the sequences shown. For some assays here: Binding seen in cells or lysates may run through a third protein.
